Measured values reported in PubChem BioAssay AID248 (DTP/NCI, 2004).
The list shows only some results of the screen, not a fair sample: it is rich in T/C values a quarter to a half above the control, in often repeated tests (any T/C) and in doses without a T/C. Further doses and runs are listed elsewhere. T/C gives the treated animals as a percentage of the vehicle group. Some entries give survivors of the animals treated and no T/C: the source files T/C as zero there, which appears to mark a toxic dose or a test without result, not a measured value. Some survivor counts are full or nearly so, which does not show that the dose was tolerated: the source hardly ever lists a survival T/C far under the control, and the zero likely stands for such cases as well. Counts of survivors are from the toxicity check (mostly the fifth day) where no day follows; animals may have died later. Schedule codes are those of the source, read here as Q, the interval in days (D) or hours (H), X, the number of doses. Marks such as (2×) stand for listed records that agree. Some doses were run more than once; the results are listed from low to high. Where survival is the endpoint, the PubChem record calls one and a half times the control and up active, and a quarter to a half above the control has no call in these data; cut-offs in other NCI protocols can differ. Some T/C values are followed by the survivors on the day toxicity was checked, most often the fifth; without a count, all were alive then.

Test system: L1210 leukemia ip in BDF1 mice, survival T/C
Assay: NCI In Vivo Anticancer Drug Screen. Data for tumor model L1210 Leukemia (intraperitoneal) in B6D2F1 (BDF1) mice
Conditions: higher T/C = longer survival
[1] = T/C endpoint: mean survival time, dose: 200.0 mg/kg/injection, schedule: Q01DX001 (ip), vehicle: saline
[2] = T/C endpoint: mean survival time, dose: 400.0 mg/kg/injection, schedule: Q01DX001 (ip), vehicle: saline
[3] = T/C endpoint: mean survival time, dose: 200.0 mg/kg/injection, schedule: Q04DX003 (ip), vehicle: Klucel (hydroxypropylcellulose) (HPC)
[4] = T/C endpoint: mean survival time, dose: 8.0 mg/kg/injection, schedule: Q01DX009 (ip), vehicle: saline

With `COc1cccc2c1C(=O)c1c(O)c3c(c(O)c1C2=O)C[C@@](O)(C(C)=O)C[C@@H]3OC1CC(NC(=S)Nc2ccc(F)cc2)C(O)C(C)O1` (stereo partly drawn) the T/C (T/C endpoint: mean survival time, dose: 21.0 mg/kg/injection, schedule: Q04DX003 (ip), vehicle: other) was 138 % of control, the T/C (T/C endpoint: mean survival time, dose: 32.0 mg/kg/injection, schedule: Q04DX003 (ip), vehicle: other) was 130 % of control and the T/C (T/C endpoint: mean survival time, dose: 32.0 mg/kg/injection, schedule: Q04DX003 (ip), vehicle: water) was 127 % of control. The T/C (T/C endpoint: mean survival time, dose: 48.0 mg/kg/injection, schedule: Q04DX003 (ip), vehicle: other) was 130 % of control.

For `c1cc2c(c3c1CC1c4cc5c(cc4CCN1C3)OCO5)OCO2` (stereo not drawn), the survivor count [1] was 4 of 4 and the survivor count [2] was 4 of 4.

`COc1cccc2c1C(=O)c1c(O)c3c(c(O)c1C2=O)C[C@@](O)(/C(C)=N/NC(=O)c1ccccc1)C[C@@H]3OC1CC(N)C(O)C(C)O1` (stereo partly drawn) was tested, and the T/C (T/C endpoint: mean survival time, dose: 2.0 mg/kg/injection, schedule: Q04DX003 (ip), vehicle: water) was 127 % of control, the T/C (T/C endpoint: mean survival time, dose: 4.0 mg/kg/injection, schedule: Q04DX003 (ip), vehicle: water) was 139 % of control and the T/C (T/C endpoint: mean survival time, dose: 8.0 mg/kg/injection, schedule: Q04DX003 (ip), vehicle: water) was 145 % of control. For the same molecule, the T/C (T/C endpoint: median survival time, dose: 0.5 mg/kg/injection, schedule: Q03HX008 (ip), vehicle: water) was 126 % of control, the T/C (T/C endpoint: median survival time, dose: 1.0 mg/kg/injection, schedule: Q03HX024 (ip), vehicle: water) was 126 % of control and the T/C (T/C endpoint: median survival time, dose: 1.75 mg/kg/injection, schedule: Q03HX008 (ip), vehicle: water) was 138 % of control. For the same molecule, the T/C (T/C endpoint: median survival time, dose: 2.0 mg/kg/injection, schedule: Q03HX008 (ip), vehicle: water) was 136 % of control, the T/C (T/C endpoint: median survival time, dose: 2.0 mg/kg/injection, schedule: Q03HX024 (ip), vehicle: water) was 147 % of control and the T/C (T/C endpoint: median survival time, dose: 2.5 mg/kg/injection, schedule: Q08DX002 (ip), vehicle: water) was 126 % of control. For the same molecule, the T/C (T/C endpoint: median survival time, dose: 5.0 mg/kg/injection, schedule: Q08DX002 (ip), vehicle: water) was 126 % of control, the T/C (T/C endpoint: median survival time, dose: 5.9 mg/kg/injection, schedule: Q01DX009 (ip), vehicle: water) was 127 % of control and the survivor count (T/C endpoint: median survival time, dose: 5.9 mg/kg/injection, schedule: Q03HX008 (ip), vehicle: water) was 9 of 10. The survivor count (T/C endpoint: median survival time, dose: 5.9 mg/kg/injection, schedule: Q03HX024 (ip), vehicle: water) was 6 of 10, the T/C (T/C endpoint: median survival time, dose: 10.0 mg/kg/injection, schedule: Q08DX002 (ip), vehicle: water) was 147 % of control and the T/C (T/C endpoint: median survival time, dose: 20.0 mg/kg/injection, schedule: Q01DX001 (ip), vehicle: water) was 127 % of control. For the same molecule, the survivor count (T/C endpoint: median survival time, dose: 30.0 mg/kg/injection, schedule: Q01DX001 (ip), vehicle: water) was 9 of 10.

`NC(=O)c1ccccc1C(=O)c1ccccc1` was tested, and the survivor count [2] was 0 of 6.

For `CN(CCC#N)C1=CCCCCC1`, the survivor count [2] was 2 of 6.

For `Cc1ccc(S(=O)(=O)N(C)c2cc(Cl)c(I)cc2Cl)cc1`, the survivor count [3] was 6 of 6.

For `S=P1(c2ccccc2)Nc2cc(Cl)ccc2S1` (stereo not drawn), the survivor count [1] was 1 of 6 and the survivor count [2] was 0 of 6.

`Clc1ccc(SCN2CCCCC2)cc1` was tested, and the survivor count [3] was 2 of 6 and the survivor count (T/C endpoint: mean survival time, dose: 400.0 mg/kg/injection, schedule: Q04DX003 (ip), vehicle: Klucel (hydroxypropylcellulose) (HPC)) was 0 of 6.

In the case of `O=C(O)C(O)C(O)C(=O)O.O=C(O)C(O)C(O)C(=O)O.[O]=[V].[O]=[V]` (stereo not drawn), the survivor count (T/C endpoint: mean survival time, dose: 100.0 mg/kg/injection, schedule: Q04DX003 (ip), vehicle: saline sonified) is reported as 3 of 6 and 6 of 6, the survivor count (T/C endpoint: mean survival time, dose: 200.0 mg/kg/injection, schedule: Q04DX003 (ip), vehicle: saline sonified) is reported as 0 of 6 (3×) and the survivor count (T/C endpoint: mean survival time, dose: 400.0 mg/kg/injection, schedule: Q04DX003 (ip), vehicle: saline sonified) is reported as 0 of 6 (3×).

In the case of `Nc1nc(N)c2c(Cl)c(CNc3ccc(C(=O)NC(CCCC(=O)O)C(=O)O)cc3)ccc2n1` (stereo not drawn), the T/C (T/C endpoint: mean survival time, dose: 0.5 mg/kg/injection, schedule: Q01DX009 (ip), vehicle: saline) is reported as 128 % of control, the T/C (T/C endpoint: mean survival time, dose: 1.0 mg/kg/injection, schedule: Q01DX009 (ip), vehicle: saline) is reported as 141 % of control and the T/C [4] is reported as 149 % of control. The survivor count [4] was 6 of 6, the T/C (T/C endpoint: mean survival time, dose: 8.0 mg/kg/injection, schedule: Q04DX003 (ip), vehicle: saline) was 126 % of control [5 of 6 alive] and the survivor count (T/C endpoint: mean survival time, dose: 12.0 mg/kg/injection, schedule: Q01DX009 (ip), vehicle: saline) was 6 of 6. The survivor count (T/C endpoint: mean survival time, dose: 16.0 mg/kg/injection, schedule: Q01DX009 (ip), vehicle: saline) was 6 of 6, the T/C (T/C endpoint: mean survival time, dose: 16.0 mg/kg/injection, schedule: Q04DX003 (ip), vehicle: saline) was 125 % of control and the T/C (T/C endpoint: mean survival time, dose: 32.0 mg/kg/injection, schedule: Q04DX003 (ip), vehicle: saline) was 142 % of control. The survivor count (T/C endpoint: mean survival time, dose: 64.0 mg/kg/injection, schedule: Q04DX003 (ip), vehicle: saline) was 4 of 6 and the survivor count (T/C endpoint: mean survival time, dose: 128.0 mg/kg/injection, schedule: Q04DX003 (ip), vehicle: saline) was 4 of 6.
